Measurements as given in publication PMC12320502.

Sequences of proteins named here, by UniProt entry; tags and fusion partners are left off. Residues count along the entry.
UniProt P13010: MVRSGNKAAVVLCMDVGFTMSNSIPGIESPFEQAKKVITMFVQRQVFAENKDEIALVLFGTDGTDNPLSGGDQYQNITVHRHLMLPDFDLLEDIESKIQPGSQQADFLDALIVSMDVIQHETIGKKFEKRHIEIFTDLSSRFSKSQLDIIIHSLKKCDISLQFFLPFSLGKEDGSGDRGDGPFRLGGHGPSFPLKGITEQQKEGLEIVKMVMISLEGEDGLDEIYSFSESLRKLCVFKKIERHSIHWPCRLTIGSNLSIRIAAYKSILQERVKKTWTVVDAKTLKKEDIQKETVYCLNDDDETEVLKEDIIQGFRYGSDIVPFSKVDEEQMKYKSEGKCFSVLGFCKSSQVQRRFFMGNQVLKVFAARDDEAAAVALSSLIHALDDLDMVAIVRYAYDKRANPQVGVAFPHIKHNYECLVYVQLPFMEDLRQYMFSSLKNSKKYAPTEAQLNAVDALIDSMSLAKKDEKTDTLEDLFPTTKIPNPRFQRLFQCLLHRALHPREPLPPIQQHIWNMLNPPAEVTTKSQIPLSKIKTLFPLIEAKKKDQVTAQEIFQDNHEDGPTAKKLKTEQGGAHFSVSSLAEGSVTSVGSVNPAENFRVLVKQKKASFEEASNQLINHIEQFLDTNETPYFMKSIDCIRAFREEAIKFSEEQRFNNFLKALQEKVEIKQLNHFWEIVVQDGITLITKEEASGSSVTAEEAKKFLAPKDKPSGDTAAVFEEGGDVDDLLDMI
UniProt P11021, residues 19-654: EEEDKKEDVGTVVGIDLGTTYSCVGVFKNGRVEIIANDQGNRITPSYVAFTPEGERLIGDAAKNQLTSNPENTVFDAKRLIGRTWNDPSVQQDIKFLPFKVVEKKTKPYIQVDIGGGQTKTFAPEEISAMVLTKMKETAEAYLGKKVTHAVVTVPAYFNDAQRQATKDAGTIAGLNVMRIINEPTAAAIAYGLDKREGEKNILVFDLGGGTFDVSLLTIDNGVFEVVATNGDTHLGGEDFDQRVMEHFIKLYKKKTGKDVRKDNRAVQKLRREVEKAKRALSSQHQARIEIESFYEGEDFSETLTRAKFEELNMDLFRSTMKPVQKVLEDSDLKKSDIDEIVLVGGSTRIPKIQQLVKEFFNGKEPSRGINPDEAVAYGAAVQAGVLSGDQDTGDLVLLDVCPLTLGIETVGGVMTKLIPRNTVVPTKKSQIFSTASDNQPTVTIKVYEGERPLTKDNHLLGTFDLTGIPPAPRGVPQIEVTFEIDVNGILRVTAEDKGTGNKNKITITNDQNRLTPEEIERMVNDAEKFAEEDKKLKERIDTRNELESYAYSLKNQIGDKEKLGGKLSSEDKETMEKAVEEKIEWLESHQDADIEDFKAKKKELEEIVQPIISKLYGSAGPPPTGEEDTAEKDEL

T1: SBSPON-3×Flag (Somatomedin B and Thrombospondin Type 1 Domain Containing), stably overexpressed by lentivirus (human) (UniProt Q8IVN8)
T1 sequence (chain, N-glycosylation at Asn227): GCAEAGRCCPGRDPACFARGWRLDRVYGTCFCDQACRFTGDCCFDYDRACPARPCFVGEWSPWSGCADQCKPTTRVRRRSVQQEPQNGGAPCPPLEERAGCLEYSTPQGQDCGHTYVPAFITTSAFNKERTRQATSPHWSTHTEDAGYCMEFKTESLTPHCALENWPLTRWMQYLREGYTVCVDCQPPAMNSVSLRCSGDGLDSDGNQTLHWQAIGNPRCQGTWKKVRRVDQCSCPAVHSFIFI

B1: DNAJC10 (protein, UniProt Q8IXB1 33-793)
chain: DQDFYSLLGVSKTASSREIRQAFKKLALKLHPDKNPNNPNAHGDFLKINRAYEVLKDEDLRKKYDKYGEKGLEDNQGGQYESWNYYRYDFGIYDDDPEIITLERREFDAAVNSGELWFVNFYSPGCSHCHDLAPTWRDFAKEVDGLLRIGAVNCGDDRMLCRMKGVNSYPSLFIFRSGMAPVKYHGDRSKESLVSFAMQHVRSTVTELWTGNFVNSIQTAFAAGIGWLITFCSKGGDCLTSQTRLRLSGMLDGLVNVGWMDCATQDNLCKSLDITTSTTAYFPPGATLNNKEKNSILFLNSLDAKEIYLEVIHNLPDFELLSANTLEDRLAHHRWLLFFHFGKNENSNDPELKKLKTLLKNDHIQVGRFDCSSAPDICSNLYVFQPSLAVFKGQGTKEYEIHHGKKILYDILAFAKESVNSHVTTLGPQNFPANDKEPWLVDFFAPWCPPCRALLPELRRASNLLYGQLKFGTLDCTVHEGLCNMYNIQAYPTTVVFNQSNIHEYEGHHSAEQILEFIEDLMNPSVVSLTPTTFNELVTQRKHNEVWMVDFYSPWCHPCQVLMPEWKRMARTLTGLINVGSIDCQQYHSFCAQENVQRYPEIRFFPPKSNKAYHYHSYNGWNRDAYSLRIWGLGFLPQVSTDLTPQTFSEKVLQGKNHWVIDFYAPWCGPCQNFAPEFELLARMIKGKVKAGKVDCQAYAQTCQKAGIRAYPTVKFYFYERAKRNFQEEQINTRDAKAIAALISEKLETLRNQGKRNKDEL
B2: JUP (protein, UniProt P14923 1-745)
chain: MEVMNLMEQPIKVTEWQQTYTYDSGIHSGANTCVPSVSSKGIMEEDEACGRQYTLKKTTTYTQGVPPSQGDLEYQMSTTARAKRVREAMCPGVSGEDSSLLLATQVEGQATNLQRLAEPSQLLKSAIVHLINYQDDAELATRALPELTKLLNDEDPVVVTKAAMIVNQLSKKEASRRALMGSPQLVAAVVRTMQNTSDLDTARCTTSILHNLSHHREGLLAIFKSGGIPALVRMLSSPVESVLFYAITTLHNLLLYQEGAKMAVRLADGLQKMVPLLNKNNPKFLAITTDCLQLLAYGNQESKLIILANGGPQALVQIMRNYSYEKLLWTTSRVLKVLSVCPSNKPAIVEAGGMQALGKHLTSNSPRLVQNCLWTLRNLSDVATKQEGLESVLKILVNQLSVDDVNVLTCATGTLSNLTCNNSKNKTLVTQNSGVEALIHAILRAGDKDDITEPAVCALRHLTSRHPEAEMAQNSVRLNYGIPAIVKLLNQPNQWPLVKATIGLIRNLALCPANHAPLQEAAVIPRLVQLLVKAHQDAQRHVAAGTQQPYTDGVRMEEIVEGCTGALHILARDPMNRMEIFRLNTIPLFVQLLYSSVENIQRVAAGVLCELAQDKEAADAIDAEGASAPLMELLHSRNEGTATYAAAVLFRISEDKNPDYRKRVSVELTNSLFKHDPAAWEAAQSMIPINEPYGDDMDATYRPMYSSDVPLDPLEMHMDMDGDYPIDTYSDGLRPPYPTADHMLA
B3: DSC1 (protein, UniProt Q08554 135-894)
chain: RWAPIPASLMENSLGPFPQHVQQIQSDAAQNYTIFYSISGPGVDKEPFNLFYIEKDTGDIFCTRSIDREKYEQFALYGYATTADGYAPEYPLPLIIKIEDDNDNAPYFEHRVTIFTVPENCRSGTSVGKVTATDLDEPDTLHTRLKYKILQQIPDHPKHFSIHPDTGVITTTTPFLDREKCDTYQLIMEVRDMGGQPFGLFNTGTITISLEDENDNPPSFTETSYVTEVEENRIDVEILRMKVQDQDLPNTPHSKAVYKILQGNENGNFIISTDPNTNEGVLCVVKPLNYEVNRQVILQVGVINEAQFSKAASSQTPTMCTTTVTVKIIDSDEGPECHPPVKVIQSQDGFPAGQELLGYKALDPEISSGEGLRYQKLGDEDNWFEINQHTGDLRTLKVLDRESKFVKNNQYNISVVAVDAVGRSCTGTLVVHLDDYNDHAPQIDKEVTICQNNEDFAVLKPVDPDGPENGPPFQFFLDNSASKNWNIEEKDGKTAILRQRQNLDYNYYSVPIQIKDRHGLVATHMLTVRVCDCSTPSECRMKDKSTRDVRPNVILGRWAILAMVLGSVLLLCILFTCFCVTAKRTVKKCFPEDIAQQNLIVSNTEGPGEEVTEANIRLPMQTSNICDTSMSVGTVGGQGIKTQQSFEMVKGGYTLDSNKGGGHQTLESVKGVGQGDTGRYAYTDWQSFTQPRLGEKVYLCGQDEEHKHCEDYVCSYNYEGKGSLAGSVGCCSDRQEEEGLEFLDHLEPKFRTLAKTCIKK

The molecules below were run against T1, SBSPON-3×Flag (Somatomedin B and Thrombospondin Type 1 Domain Containing), stably overexpressed by lentivirus (human) (assay: affinity purification with mass spectrometry; immunoprecipitation in SBSPON-3×Flag overexpressing 5637 and T24 cells; NP-40 lysates, protein A/G agarose beads; bands from SDS-PAGE analysed by mass spectrometry).
In the case of XRCC5 (from UniProt P13010 1-732), the binding is reported as “binds”. In the case of “HSPA5, endogenous in bladder cancer cells (from UniProt P11021 19-654)”, the binding is reported as “binds”. In the case of B1, the binding is reported as “binds”. For B2, the binding was “binds”. For B3, the binding was “binds”.

No constants are given. Whether binding was seen depends on the method and setting. Binding seen in cells or lysates may run through a third protein. Here binding means that the protein was enriched with, or labelled near, the bait; the list need not be complete. Where a sequence is shown, tags or fusion partners need not be part of it.
